These results are taken from the supplement of paper PMC12819154, “High-throughput peptide-centric local stability assay extends protein–ligand identification to membrane proteins, tissues and bacteria” (Nature Structural & Molecular Biology, 2025).

By UniProt entry, the sequences of proteins in these tests, tags left out. Where a name states a change or a piece, a line headed by the entry shows the natural chain unless it says otherwise.
UniProt Q99LD9: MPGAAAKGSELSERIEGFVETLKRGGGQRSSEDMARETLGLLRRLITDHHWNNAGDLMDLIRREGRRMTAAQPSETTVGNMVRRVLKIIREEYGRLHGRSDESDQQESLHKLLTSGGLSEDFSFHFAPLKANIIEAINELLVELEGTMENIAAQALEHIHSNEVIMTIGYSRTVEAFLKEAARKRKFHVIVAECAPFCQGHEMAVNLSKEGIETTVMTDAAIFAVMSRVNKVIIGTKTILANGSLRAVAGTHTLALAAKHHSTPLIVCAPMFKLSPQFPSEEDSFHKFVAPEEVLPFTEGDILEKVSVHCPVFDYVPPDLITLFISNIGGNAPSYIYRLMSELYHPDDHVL
UniProt Q921N6: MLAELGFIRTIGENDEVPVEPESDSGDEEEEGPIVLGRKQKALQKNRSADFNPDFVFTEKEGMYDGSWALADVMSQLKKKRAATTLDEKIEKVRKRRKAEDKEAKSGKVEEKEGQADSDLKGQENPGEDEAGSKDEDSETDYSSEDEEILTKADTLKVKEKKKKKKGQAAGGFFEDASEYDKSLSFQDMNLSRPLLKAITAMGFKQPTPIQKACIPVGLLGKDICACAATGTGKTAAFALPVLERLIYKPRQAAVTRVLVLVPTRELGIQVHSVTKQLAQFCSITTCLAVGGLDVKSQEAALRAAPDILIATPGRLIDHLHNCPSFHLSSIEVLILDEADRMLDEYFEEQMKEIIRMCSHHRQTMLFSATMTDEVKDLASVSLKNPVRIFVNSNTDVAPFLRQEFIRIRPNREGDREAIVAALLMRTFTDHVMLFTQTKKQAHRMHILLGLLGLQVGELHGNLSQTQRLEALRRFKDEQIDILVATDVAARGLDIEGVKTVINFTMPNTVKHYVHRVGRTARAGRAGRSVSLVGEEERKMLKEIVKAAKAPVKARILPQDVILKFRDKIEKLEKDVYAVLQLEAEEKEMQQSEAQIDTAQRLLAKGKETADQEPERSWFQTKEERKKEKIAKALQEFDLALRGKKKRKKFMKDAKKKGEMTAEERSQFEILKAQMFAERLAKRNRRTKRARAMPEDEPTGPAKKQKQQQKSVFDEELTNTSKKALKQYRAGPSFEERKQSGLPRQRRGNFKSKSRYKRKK
UniProt Q923D4: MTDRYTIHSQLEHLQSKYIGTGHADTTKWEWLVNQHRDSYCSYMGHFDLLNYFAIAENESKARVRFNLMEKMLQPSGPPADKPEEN
UniProt Q920B9, whole entry: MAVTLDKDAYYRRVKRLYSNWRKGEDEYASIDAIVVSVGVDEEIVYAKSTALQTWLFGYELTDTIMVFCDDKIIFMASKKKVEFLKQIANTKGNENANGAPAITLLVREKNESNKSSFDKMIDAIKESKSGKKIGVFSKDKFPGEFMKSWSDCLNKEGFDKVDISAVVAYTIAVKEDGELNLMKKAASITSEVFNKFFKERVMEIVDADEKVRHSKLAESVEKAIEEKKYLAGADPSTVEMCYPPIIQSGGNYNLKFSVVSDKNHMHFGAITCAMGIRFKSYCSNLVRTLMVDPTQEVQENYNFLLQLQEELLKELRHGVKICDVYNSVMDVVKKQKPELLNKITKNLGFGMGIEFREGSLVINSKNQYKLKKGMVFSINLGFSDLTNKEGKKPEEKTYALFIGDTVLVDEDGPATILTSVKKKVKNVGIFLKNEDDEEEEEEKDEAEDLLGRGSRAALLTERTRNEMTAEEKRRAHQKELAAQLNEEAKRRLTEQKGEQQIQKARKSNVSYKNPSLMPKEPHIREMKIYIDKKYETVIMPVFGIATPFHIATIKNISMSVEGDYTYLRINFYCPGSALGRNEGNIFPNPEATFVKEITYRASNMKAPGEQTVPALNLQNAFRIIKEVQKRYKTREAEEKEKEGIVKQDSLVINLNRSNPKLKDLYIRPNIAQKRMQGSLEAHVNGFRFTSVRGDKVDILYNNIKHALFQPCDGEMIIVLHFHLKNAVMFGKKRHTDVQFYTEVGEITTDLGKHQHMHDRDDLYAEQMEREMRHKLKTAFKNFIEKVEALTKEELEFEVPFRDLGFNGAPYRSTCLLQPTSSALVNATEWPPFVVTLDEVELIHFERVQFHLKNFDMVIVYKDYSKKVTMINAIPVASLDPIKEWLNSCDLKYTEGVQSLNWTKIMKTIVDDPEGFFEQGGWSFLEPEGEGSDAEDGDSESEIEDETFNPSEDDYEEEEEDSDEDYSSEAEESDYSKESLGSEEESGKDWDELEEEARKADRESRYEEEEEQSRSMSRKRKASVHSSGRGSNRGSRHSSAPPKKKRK
UniProt Q921I9, whole entry: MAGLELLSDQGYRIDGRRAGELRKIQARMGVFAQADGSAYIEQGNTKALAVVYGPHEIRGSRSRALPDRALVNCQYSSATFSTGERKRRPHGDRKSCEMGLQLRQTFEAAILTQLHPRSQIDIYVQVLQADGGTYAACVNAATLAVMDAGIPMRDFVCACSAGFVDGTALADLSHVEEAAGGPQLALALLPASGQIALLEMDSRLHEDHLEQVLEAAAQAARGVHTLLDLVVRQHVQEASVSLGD
UniProt Q99K30: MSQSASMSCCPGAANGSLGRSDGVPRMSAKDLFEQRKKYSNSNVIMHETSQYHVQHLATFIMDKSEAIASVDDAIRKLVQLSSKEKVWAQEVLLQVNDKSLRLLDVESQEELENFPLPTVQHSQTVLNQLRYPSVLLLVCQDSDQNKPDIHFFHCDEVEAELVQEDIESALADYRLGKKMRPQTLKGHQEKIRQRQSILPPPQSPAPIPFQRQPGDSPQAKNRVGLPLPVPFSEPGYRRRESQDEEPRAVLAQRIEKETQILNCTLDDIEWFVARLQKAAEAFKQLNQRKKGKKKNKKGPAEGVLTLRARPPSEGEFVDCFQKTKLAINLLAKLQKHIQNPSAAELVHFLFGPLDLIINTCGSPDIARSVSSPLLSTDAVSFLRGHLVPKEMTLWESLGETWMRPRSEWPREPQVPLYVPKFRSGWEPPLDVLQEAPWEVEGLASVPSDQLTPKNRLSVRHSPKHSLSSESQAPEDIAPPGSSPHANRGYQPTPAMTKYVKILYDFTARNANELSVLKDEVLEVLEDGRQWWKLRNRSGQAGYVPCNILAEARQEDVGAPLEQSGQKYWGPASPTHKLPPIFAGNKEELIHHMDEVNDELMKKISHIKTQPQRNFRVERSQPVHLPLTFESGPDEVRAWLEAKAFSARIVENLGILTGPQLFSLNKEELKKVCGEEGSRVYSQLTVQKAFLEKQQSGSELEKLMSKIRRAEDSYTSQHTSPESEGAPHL
UniProt Q99KG3: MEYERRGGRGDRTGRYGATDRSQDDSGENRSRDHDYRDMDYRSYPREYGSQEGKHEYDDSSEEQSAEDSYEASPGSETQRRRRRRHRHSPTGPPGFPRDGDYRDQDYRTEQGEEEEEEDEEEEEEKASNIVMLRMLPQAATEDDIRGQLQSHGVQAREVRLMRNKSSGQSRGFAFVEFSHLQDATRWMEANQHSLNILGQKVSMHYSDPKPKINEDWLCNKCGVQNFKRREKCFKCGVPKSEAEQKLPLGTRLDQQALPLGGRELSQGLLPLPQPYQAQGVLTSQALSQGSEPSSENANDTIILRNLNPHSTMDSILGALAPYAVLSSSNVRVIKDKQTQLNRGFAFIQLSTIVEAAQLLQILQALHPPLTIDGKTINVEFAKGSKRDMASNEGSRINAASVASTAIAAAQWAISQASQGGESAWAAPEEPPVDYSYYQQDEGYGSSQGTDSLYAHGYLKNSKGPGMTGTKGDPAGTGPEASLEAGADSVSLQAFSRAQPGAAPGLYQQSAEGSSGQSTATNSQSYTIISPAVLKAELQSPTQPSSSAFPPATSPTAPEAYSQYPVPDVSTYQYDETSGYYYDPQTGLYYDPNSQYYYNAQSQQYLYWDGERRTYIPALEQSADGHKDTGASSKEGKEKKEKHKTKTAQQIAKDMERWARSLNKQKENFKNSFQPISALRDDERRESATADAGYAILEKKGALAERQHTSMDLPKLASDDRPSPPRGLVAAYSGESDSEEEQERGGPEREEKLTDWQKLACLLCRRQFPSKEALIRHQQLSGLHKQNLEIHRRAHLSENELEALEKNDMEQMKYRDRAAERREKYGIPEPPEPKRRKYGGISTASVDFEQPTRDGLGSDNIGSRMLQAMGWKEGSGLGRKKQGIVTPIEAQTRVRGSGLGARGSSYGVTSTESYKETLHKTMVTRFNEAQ
UniProt Q99J83: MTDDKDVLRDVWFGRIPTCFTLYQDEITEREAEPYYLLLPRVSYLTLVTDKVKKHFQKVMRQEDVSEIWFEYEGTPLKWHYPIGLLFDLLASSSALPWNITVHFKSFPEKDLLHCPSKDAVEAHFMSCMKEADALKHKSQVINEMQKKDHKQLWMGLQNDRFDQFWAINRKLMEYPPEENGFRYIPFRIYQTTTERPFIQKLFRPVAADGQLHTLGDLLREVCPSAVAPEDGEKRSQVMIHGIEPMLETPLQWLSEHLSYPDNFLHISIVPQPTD
UniProt Q99K70, whole entry: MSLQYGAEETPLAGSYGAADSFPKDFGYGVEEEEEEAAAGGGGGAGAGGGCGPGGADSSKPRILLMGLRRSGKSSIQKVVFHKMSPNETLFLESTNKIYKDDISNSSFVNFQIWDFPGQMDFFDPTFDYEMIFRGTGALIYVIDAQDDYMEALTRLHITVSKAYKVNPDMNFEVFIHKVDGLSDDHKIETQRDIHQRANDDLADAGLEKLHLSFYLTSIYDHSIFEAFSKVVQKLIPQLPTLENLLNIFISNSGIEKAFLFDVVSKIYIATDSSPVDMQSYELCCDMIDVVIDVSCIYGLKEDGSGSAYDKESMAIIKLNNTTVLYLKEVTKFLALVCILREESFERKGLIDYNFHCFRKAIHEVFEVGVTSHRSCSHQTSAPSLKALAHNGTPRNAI
UniProt Q99KD5: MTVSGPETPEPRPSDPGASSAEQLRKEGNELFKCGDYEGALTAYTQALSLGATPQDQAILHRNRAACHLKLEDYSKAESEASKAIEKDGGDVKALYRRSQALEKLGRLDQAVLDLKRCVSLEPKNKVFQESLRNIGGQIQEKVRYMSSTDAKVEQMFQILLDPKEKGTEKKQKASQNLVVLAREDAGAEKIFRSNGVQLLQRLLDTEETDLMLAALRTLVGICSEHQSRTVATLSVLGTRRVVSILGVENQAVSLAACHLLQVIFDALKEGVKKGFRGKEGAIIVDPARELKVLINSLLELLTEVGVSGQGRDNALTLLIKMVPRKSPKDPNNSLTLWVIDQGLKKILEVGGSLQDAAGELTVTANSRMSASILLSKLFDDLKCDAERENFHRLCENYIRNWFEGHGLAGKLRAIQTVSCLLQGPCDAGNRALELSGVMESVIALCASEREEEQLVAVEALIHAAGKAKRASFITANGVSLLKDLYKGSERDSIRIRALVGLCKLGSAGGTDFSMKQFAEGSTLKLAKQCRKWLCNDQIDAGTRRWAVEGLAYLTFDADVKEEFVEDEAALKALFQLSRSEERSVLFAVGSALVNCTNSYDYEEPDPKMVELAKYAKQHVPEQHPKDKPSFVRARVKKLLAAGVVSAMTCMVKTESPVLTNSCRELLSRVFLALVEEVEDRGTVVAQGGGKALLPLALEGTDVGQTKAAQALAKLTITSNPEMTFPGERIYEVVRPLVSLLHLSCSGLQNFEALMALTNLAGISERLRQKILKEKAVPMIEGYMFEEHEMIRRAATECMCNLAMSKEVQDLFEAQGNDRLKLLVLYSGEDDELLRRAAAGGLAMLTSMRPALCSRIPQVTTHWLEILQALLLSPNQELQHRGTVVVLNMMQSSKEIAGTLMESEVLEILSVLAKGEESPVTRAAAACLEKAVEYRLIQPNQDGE
UniProt Q922Q4: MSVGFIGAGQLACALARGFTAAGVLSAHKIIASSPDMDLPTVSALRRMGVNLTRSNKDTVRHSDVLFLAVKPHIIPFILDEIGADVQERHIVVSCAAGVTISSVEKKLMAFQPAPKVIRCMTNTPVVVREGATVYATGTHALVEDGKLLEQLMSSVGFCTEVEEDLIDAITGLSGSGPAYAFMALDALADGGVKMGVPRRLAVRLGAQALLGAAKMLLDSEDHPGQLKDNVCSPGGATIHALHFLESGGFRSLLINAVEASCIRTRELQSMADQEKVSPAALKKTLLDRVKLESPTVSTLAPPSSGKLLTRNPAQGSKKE
UniProt Q99KQ4: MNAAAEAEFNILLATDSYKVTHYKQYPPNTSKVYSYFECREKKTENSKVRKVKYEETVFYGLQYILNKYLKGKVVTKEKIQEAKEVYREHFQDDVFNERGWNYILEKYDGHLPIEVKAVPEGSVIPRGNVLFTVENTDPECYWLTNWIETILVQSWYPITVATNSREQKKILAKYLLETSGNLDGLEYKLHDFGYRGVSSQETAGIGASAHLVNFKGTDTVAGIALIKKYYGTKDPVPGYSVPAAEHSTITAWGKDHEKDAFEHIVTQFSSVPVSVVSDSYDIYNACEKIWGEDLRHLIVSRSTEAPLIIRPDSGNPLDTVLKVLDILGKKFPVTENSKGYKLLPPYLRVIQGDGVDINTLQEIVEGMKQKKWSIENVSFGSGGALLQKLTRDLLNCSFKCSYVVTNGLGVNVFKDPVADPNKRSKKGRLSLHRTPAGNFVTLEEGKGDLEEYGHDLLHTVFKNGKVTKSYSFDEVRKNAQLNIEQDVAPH

Compound in the experiment: CN[C@@H]1C[C@H]2O[C@@](C)([C@@H]1OC)n1c3ccccc3c3c4c(c5c6ccccc6n2c5c31)C(=O)NC4 [staurosporine]
The experiment is described as follows: log2 fold change of tryptic peptide abundance, ligand vs vehicle (limited proteolysis) (log2 ratio); higher = more trypsin-susceptible (destabilized). The settings on record: ligand concentration: 20 uM; sample: mouse liver crude lysate; replicate design: treated separately.

Some of the results follow. Most values lie at the level of the controls, where differences are scatter.

As to “UniProt Q923Q2 (peptide sequence: SNCLDQVGLFR, peptide start residue: 689)”, the log2 fold change came to 0.223. Next, “UniProt Q923K4 (peptide sequence: TSGPASGLALR, peptide start residue: 53)”: 0.273. Next, “UniProt Q99KJ0 (peptide sequence: KNEVCMSTKPVFQPFSGQGHR, peptide start residue: 120)”: 0.312; “UniProt Q920B0 (peptide sequence: SSINEQFMDTR, peptide start residue: 628)”: -0.38. The same measure for “UniProt Q99LD9 (peptide sequence: GSELSERIEGFVETLKR, peptide start residue: 8)”: -0.96; for “UniProt Q923E4 (peptide sequence: LSEITEKPPRPQK, peptide start residue: 499)”: -0.562; for “UniProt Q923D5 (peptide sequence: DDVYEAFMK, peptide start residue: 627)”: 0.166. Take “UniProt Q99JX3 (peptide sequence: VQENSPGHR, peptide start residue: 22)”: the log2 fold change was -0.559. Next, “UniProt Q921N6 (peptide sequence: SQFEILK, peptide start residue: 666)”: -0.137; “UniProt Q99LB0 (peptide sequence: DLAASDDYR, peptide start residue: 275)”: 0.417; “UniProt Q99KZ6 (peptide sequence: YSDSSGISR, peptide start residue: 18)”: 0.376. Next, “UniProt Q99J77 (peptide sequence: VKIPAGTTLTLDMLTVK, peptide start residue: 299)”: 0.141; “UniProt Q99LG1 (peptide sequence: AETETSPGHAPDRQNSK, peptide start residue: 173)”: -0.332; “UniProt Q923D4 (peptide sequence: YIGTGHADTTK, peptide start residue: 18)”: -0.359.

In the case of “UniProt Q99L28 (peptide sequence: QNIHLIR, peptide start residue: 129)”, the log2 fold change was 0.109. “UniProt Q920S3 (peptide sequence: SSPFPTVPTRPEK, peptide start residue: 231)”: the log2 fold change is -0.113. The same measure for “UniProt Q920B9 (peptide sequence: INFYCPGSALGR, peptide start residue: 570)”: -0.276; for “UniProt Q921I9 (peptide sequence: SCEMGLQLR, peptide start residue: 96)”: -0.233; for “UniProt Q921M7 (peptide sequence: FYEFSQR, peptide start residue: 93)”: 0.284. Next, “UniProt Q99K30 (peptide sequence: NKKGPAEGVLTLR, peptide start residue: 296)”: -0.257; “UniProt Q99JP4 (peptide sequence: LDDIEEFESIRK, peptide start residue: 13)”: -0.22; “UniProt Q921T2 (peptide sequence: ISHLVLPVQPENTLK, peptide start residue: 576)”: -0.466. With “UniProt Q99KR6 (peptide sequence: LYKENEENQK, peptide start residue: 303)”, the log2 fold change was -0.104. Next, “UniProt Q99KG3 (peptide sequence: INEDWLCNK, peptide start residue: 213)”: 0.402; “UniProt Q91ZV8 (peptide sequence: GDGEPEPTGSR, peptide start residue: 1151)”: -0.475.

For the target “UniProt Q920Q6 (peptide sequence: ECMVMRDPTTKR, peptide start residue: 49)”, the log2 fold change is 0.0301. “UniProt Q99J45 (peptide sequence: TPTPEPAEVETR, peptide start residue: 431)”: the log2 fold change is -0.201. Next, “UniProt Q99K41 (peptide sequence: QQQLVGPAMAR, peptide start residue: 338)”: -0.176.

Turning to “UniProt Q99J83 (peptide sequence: LFRPVAADGQLHTLGDLLR, peptide start residue: 202)”, the log2 fold change is -0.213. On to “UniProt Q99K70 (peptide sequence: SCSHQTSAPSLK, peptide start residue: 375)”, for which the log2 fold change was -0.0591. The same measure for “UniProt Q99LH9 (peptide sequence: VTELEQQVAQAK, peptide start residue: 243)”: 0.282; for “UniProt Q99LC8 (peptide sequence: AQNKPFYVVAESFK, peptide start residue: 221)”: -0.247; for “UniProt Q921K8 (peptide sequence: GALSEFQAMLNHK, peptide start residue: 417)”: -0.15. In the case of “UniProt Q99KD5 (peptide sequence: AVPMIEGYMFEEHEMIRR, peptide start residue: 776)”, the log2 fold change was -0.571. As to “UniProt Q924M7 (peptide sequence: VKNTFNGKLPFLFK, peptide start residue: 86)”, the log2 fold change is -0.361.

Take “UniProt Q924Z5 (peptide sequence: REPGYHENGVVK, peptide start residue: 344)”: the log2 fold change was 0.117. On to “UniProt Q99L47 (peptide sequence: LAILYAKR, peptide start residue: 146)”, for which the log2 fold change turned out to be 0.394. The same measure for “UniProt Q922Q4 (peptide sequence: CMTNTPVVVR, peptide start residue: 120)”: -0.527; for “UniProt Q99JF8 (peptide sequence: EEEGQKEEEKPR, peptide start residue: 233)”: -0.887. The same measure for “UniProt Q99KQ4 (peptide sequence: LLPPYLR, peptide start residue: 343)”: -0.274.
